# Results as given in the supplement of paper PMC12823440, “Inhibitors supercharge kinase turnover through native proteolytic circuits” (Nature, 2025).
# Chains of the proteins cited; added tags and fusions are not shown. Lines headed by an entry give the natural chain unless they say otherwise; changes in a name come on top.
# UniProt Q15208: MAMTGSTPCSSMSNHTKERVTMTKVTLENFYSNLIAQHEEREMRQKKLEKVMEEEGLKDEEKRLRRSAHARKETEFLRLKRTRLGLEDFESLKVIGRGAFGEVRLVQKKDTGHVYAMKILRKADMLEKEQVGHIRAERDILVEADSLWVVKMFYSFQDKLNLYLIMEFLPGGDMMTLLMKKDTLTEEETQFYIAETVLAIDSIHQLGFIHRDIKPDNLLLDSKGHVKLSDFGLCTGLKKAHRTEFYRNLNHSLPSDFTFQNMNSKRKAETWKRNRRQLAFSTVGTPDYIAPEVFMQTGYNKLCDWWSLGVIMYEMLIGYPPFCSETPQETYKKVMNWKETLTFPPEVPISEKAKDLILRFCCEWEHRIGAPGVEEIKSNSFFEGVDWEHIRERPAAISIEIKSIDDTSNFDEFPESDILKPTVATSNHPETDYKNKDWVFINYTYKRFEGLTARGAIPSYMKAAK
# UniProt P42680: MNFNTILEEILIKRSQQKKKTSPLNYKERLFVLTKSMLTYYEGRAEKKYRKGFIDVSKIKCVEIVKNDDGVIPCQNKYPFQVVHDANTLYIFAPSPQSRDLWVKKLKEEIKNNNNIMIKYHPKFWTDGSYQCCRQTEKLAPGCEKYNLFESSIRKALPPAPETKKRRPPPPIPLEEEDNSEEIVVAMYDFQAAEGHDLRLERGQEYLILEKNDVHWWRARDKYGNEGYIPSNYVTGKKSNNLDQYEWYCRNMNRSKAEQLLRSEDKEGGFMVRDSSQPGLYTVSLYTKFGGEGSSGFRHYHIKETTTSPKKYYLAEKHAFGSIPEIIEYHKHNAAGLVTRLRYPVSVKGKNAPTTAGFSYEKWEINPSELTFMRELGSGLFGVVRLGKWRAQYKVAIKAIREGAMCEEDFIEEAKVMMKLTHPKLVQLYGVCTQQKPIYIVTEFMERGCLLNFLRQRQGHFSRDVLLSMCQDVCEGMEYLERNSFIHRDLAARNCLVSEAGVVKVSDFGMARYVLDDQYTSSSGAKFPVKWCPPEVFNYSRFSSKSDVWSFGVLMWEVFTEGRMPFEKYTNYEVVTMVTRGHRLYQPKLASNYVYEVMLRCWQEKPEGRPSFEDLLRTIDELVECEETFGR
# UniProt P07947, whole entry, looked up: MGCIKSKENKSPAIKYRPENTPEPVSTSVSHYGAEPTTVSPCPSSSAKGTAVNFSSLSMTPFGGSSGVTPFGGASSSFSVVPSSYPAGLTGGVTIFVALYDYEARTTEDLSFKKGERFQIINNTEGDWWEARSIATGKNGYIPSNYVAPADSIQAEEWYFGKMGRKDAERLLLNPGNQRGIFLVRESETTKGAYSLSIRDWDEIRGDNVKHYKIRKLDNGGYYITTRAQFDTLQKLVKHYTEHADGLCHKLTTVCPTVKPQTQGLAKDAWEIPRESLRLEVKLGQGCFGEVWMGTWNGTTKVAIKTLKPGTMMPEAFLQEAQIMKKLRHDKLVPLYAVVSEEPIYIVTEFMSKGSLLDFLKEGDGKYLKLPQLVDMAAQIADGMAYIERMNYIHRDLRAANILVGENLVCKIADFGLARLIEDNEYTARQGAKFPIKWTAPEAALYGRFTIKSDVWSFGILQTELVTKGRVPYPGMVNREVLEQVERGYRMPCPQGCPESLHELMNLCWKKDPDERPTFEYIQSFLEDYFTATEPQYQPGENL
# UniProt P00519, whole entry: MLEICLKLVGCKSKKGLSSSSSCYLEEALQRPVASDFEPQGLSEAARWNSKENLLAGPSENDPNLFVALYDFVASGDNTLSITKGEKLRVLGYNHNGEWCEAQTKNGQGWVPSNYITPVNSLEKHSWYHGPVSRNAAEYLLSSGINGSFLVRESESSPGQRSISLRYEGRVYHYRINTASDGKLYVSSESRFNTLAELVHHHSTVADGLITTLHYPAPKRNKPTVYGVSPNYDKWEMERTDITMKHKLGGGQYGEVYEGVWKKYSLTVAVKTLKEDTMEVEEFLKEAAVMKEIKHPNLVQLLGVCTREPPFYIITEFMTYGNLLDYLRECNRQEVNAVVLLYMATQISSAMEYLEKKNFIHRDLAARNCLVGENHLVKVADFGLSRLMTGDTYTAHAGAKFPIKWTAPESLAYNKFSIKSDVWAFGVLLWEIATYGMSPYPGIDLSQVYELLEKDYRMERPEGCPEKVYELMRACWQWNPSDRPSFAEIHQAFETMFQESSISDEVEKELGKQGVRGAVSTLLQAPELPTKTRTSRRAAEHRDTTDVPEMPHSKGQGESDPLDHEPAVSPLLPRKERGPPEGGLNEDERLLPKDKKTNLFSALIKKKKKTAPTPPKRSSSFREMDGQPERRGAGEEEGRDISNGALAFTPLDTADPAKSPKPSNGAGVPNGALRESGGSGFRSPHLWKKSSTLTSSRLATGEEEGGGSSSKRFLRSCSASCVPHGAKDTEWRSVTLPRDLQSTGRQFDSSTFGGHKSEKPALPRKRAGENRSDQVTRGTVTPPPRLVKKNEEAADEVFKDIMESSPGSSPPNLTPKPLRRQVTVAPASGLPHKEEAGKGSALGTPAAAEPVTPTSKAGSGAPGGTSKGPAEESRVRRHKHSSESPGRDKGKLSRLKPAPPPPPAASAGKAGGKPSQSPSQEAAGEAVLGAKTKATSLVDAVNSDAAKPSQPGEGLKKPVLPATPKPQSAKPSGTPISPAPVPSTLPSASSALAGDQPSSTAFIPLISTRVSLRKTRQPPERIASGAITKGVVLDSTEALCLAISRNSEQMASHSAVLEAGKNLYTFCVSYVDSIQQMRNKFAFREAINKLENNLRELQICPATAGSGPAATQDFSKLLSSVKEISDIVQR
# UniProt P31749: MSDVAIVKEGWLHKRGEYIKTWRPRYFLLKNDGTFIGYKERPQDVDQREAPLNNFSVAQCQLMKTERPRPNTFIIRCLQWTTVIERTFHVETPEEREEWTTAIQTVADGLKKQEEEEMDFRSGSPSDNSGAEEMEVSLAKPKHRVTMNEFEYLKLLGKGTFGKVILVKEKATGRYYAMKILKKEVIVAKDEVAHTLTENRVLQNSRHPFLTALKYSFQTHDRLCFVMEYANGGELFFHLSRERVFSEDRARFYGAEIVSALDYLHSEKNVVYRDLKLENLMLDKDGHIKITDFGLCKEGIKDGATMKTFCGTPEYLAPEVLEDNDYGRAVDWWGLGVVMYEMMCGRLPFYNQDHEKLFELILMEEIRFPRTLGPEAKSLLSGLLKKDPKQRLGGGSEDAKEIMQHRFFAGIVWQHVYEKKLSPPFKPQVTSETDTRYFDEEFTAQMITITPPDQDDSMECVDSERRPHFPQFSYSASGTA
# UniProt Q9UM73: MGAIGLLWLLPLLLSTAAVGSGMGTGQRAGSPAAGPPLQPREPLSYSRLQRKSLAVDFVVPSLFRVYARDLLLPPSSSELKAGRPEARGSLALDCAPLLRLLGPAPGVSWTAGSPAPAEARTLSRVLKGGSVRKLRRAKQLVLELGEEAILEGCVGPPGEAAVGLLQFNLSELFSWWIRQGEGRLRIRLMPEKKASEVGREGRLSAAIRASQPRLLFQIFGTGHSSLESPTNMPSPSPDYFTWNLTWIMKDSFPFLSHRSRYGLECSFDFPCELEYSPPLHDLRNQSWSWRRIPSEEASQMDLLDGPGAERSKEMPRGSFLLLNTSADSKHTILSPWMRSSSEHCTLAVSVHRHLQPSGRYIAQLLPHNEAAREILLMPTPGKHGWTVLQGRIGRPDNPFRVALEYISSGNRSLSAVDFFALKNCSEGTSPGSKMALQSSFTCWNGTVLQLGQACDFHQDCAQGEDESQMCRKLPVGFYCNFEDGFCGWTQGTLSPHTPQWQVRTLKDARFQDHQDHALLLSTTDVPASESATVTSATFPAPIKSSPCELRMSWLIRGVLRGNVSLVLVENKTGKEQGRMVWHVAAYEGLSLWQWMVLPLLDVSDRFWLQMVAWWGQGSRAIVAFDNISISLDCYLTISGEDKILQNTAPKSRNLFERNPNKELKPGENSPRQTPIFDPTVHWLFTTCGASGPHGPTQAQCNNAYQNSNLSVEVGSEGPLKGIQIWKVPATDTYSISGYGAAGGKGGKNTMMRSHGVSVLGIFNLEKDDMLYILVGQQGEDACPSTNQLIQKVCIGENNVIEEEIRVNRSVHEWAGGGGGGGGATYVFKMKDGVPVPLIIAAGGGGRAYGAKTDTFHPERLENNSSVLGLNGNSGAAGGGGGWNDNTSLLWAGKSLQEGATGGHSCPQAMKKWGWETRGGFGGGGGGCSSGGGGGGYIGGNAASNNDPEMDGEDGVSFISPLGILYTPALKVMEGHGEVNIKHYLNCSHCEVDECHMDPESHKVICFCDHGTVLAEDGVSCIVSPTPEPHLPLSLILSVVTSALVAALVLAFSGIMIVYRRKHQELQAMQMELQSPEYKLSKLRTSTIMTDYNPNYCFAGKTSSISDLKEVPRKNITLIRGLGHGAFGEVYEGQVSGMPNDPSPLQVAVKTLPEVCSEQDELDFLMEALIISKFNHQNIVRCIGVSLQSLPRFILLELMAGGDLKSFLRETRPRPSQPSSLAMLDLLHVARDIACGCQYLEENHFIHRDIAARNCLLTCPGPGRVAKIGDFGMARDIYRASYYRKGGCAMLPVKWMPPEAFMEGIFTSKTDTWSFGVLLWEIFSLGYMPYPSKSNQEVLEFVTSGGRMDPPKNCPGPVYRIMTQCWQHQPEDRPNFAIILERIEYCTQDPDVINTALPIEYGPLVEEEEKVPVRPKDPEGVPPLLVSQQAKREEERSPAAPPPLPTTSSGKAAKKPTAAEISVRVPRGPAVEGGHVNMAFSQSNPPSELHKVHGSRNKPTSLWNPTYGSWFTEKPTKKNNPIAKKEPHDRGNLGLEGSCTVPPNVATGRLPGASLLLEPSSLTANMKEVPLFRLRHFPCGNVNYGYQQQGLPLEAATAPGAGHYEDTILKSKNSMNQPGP
# UniProt P10398: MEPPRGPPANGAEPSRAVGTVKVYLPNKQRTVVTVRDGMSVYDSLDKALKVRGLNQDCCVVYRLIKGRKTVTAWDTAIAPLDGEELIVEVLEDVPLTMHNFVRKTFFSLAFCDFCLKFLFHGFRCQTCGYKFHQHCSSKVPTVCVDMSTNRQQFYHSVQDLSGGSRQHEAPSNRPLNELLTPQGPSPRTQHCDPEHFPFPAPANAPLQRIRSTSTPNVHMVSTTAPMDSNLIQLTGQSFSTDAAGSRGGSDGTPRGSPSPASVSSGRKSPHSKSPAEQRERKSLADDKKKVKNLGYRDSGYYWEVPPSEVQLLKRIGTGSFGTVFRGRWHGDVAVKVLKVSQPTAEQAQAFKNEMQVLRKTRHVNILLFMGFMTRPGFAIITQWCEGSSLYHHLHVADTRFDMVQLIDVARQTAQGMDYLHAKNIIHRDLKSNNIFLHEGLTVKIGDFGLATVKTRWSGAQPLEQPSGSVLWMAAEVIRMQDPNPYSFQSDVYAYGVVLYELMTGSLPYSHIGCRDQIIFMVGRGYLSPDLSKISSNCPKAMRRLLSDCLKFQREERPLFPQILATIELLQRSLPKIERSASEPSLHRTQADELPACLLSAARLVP
# UniProt O14965: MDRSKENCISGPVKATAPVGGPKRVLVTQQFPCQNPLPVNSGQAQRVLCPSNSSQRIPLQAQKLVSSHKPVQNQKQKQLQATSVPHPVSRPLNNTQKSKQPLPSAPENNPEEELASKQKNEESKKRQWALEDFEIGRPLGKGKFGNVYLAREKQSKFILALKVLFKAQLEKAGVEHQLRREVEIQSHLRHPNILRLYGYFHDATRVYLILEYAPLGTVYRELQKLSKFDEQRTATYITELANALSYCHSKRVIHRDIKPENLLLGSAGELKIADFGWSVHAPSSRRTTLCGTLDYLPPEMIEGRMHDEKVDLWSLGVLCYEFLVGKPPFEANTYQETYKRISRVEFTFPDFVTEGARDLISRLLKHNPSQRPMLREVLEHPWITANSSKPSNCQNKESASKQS
# UniProt Q96GD4, whole entry: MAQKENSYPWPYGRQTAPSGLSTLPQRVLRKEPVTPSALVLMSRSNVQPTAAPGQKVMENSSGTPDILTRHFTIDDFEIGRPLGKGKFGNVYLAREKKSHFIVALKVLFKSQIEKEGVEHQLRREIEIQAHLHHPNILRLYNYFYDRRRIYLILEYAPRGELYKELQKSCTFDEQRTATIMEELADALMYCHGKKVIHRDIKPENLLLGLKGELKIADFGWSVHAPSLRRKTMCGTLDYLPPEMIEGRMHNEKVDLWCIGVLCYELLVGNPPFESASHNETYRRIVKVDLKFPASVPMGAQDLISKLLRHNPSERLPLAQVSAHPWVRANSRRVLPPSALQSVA
# UniProt Q9UQB9: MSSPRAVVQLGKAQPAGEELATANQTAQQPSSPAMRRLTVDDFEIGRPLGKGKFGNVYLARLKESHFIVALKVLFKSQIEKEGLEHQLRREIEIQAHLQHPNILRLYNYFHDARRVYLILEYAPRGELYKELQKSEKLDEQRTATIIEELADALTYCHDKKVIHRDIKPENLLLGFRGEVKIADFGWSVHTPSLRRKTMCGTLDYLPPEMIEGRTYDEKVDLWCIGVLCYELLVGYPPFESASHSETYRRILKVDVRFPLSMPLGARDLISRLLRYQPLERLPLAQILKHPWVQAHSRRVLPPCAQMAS
# Some of the results follow. The calls rarely recur for the same compound in another form.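 Kinases were expressed as nanoluciferase fusions in K562 cells and luminescence was read every 4 h between 2 and 18 h as percent of control, DMSO set to 100% and a positive control to 0%. A time point counts as decreased when the signal drops significantly (2 sigma). The hit call is the authors' own, does not follow from the count of time points alone, and its rule is not shown.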
# What was measured:
# Details in all cases: K562; 2-18 h
# [1] = biological target: STK38 (UniProt Q15208); assay: kinase-Nluc reporter destabilization hit call (1 = scored as downregulated) (binary); higher = compound decreases kinase abundance
# [2] = biological target: SYK (UniProt P43405); assay: as above
# [3] = biological target: TEC (UniProt P42680); assay: as above
# [4] = biological target: TYK2 (UniProt P29597); assay: as above
# [5] = biological target: ULK3 (UniProt Q6PHR2); assay: as above
# [6] = biological target: YES1 (UniProt P07947); assay: as above
# [7] = biological target: ZAK (UniProt Q9NYL2); assay: as above
# [8] = biological target: ZAP70 (UniProt P43403); assay: as above
# [9] = biological target: ABL1 (UniProt P00519); assay: number of time points (of 5) at which kinase-Nluc abundance scored as decreased, DMSO-normalised (count); higher = more persistent destabilization
# [10] = biological target: AKT1 (UniProt P31749); assay: as above
# [11] = biological target: ALK (UniProt Q9UM73); assay: as above
# [12] = biological target: ARAF (UniProt P10398); assay: as above
# [13] = biological target: AURKA (UniProt O14965); assay: as above
# [14] = biological target: AURKB (UniProt Q96GD4); assay: as above
# [15] = biological target: AURKC (UniProt Q9UQB9); assay: as above
# [16] = biological target: BLK (UniProt P51451); assay: as above
# [17] = biological target: BMX (UniProt P51813); assay: as above
# [18] = biological target: BRAF (UniProt P15056); assay: as above
# [19] = test system: BRAF_V600E; assay: as above
# [20] = biological target: BTK (UniProt Q06187); assay: as above
Compound,kinase-Nluc reporter destabilization hit call [1],kinase-Nluc reporter destabilization hit call [2],kinase-Nluc reporter destabilization hit call [3],kinase-Nluc reporter destabilization hit call [4],kinase-Nluc reporter destabilization hit call [5],kinase-Nluc reporter destabilization hit call [6],kinase-Nluc reporter destabilization hit call [7],kinase-Nluc reporter destabilization hit call [8],number of time points [9],number of time points [10],number of time points [11],number of time points [12],number of time points [13],number of time points [14],number of time points [15],number of time points [16],number of time points [17],number of time points [18],number of time points [19],number of time points [20]
CC[C@H](C)[C@H](NC(=O)[C@H](CCC(=O)O)NC(=O)[C@H](CCCN=C(N)N)NC(=O)[C@H](CCCN=C(N)N)NC(=O)[C@@H](N)CCCCN)C(=O)N[C@@H](CC(C)C)C(=O)N[C@@H](CO)C(=O)N[C@@H](CCCN=C(N)N)C(=O)N[C@@H](CCCN=C(N)N)C(=O)N1CCC[C@H]1C(=O)N[C@@H](CO)C(=O)N[C@@H](Cc1ccc(O)cc1)C(=O)N[C@@H](CCCN=C(N)N)C(=O)O [CREBtide] (10 µM),inactive: 0,inactive: 0,inactive: 0,inactive: 0,inactive: 0,inactive: 0,inactive: 0,inactive: 0,0,0,0,0,0,0,0,0,0,0,0,0
O=C(Nc1ccc(Cl)c(Cl)c1)Nc1ccc2nnsc2c1 (10 µM),inactive: 0,inactive: 0,inactive: 0,inactive: 0,inactive: 0,inactive: 0,inactive: 0,inactive: 0,0,0,0,0,0,0,0,0,0,3,0,0
COc1cc(-c2cc(-c3cc(OC)c(OC)c(OC)c3)cc(C(F)P(=O)(OCOC(=O)C(C)(C)C)OCOC(=O)C(C)(C)C)c2)cc(OC)c1OC (stereo not given) [Stafia-1-dipivaloyloxymethyl ester] (2.5 µM),inactive: 0,inactive: 0,inactive: 0,inactive: 0,inactive: 0,inactive: 0,inactive: 0,inactive: 0,1,0,0,0,0,0,0,0,0,0,1,0
Cc1cc(C(C)Nc2ccccc2)c2nc(N3CCOCC3)cc(=O)n2c1 (stereo not given) (10 µM),inactive: 0,inactive: 0,inactive: 0,inactive: 0,inactive: 0,inactive: 0,inactive: 0,inactive: 0,0,0,0,0,0,0,0,0,0,0,0,0
CC[C@@H]1C(=O)N(C)c2cnc(Nc3ccc(C(=O)N[C@H]4CC[C@H](N5CCN(CC6CC6)CC5)CC4)cc3OC)nc2N1C(C)C [Volasertib] (2.5 µM),inactive: 0,inactive: 0,inactive: 0,inactive: 0,inactive: 0,inactive: 0,inactive: 0,inactive: 0,0,0,0,0,0,0,0,0,0,0,0,0
COc1ccc2c(Oc3ccc(NC(=O)c4c(C)n(CC(C)(C)O)n(-c5ccccc5)c4=O)cc3F)ccnc2c1 (2.5 µM),inactive: 0,inactive: 0,inactive: 0,inactive: 0,inactive: 0,inactive: 0,inactive: 0,inactive: 0,1,0,0,0,0,0,0,0,0,0,2,0
[O-][n+]1cccc(-c2nc3c(Cl)cccc3cc2[C@@H](Nc2ncnc3cccnc23)C(F)(F)F)c1 [Seletalisib] (10 µM),inactive: 0,inactive: 0,inactive: 0,inactive: 0,inactive: 0,inactive: 0,inactive: 0,inactive: 0,0,0,0,0,0,0,0,0,0,0,0,0
C[C@@H]1C[C@H]2O[C@@]3(O[C@@H]2C(C)(C)O)[C@H](O)[C@@]2(C)[C@@H]4CC[C@H]5C(C)(C)[C@@H](O[C@@H]6OC[C@H](O)[C@H](O)[C@H]6O)CC[C@@]56C[C@@]46CC[C@]2(C)[C@@H]13 [Cimiracemoside C] (10 µM),inactive: 0,inactive: 0,inactive: 0,inactive: 0,inactive: 0,inactive: 0,inactive: 0,inactive: 0,0,0,0,0,0,0,0,0,0,0,0,0
O=C(O)CCc1ccc(NCc2cccc(Oc3ccccc3)c2)cc1 (10 µM),inactive: 0,inactive: 0,inactive: 0,inactive: 0,inactive: 0,inactive: 0,inactive: 0,inactive: 0,0,0,0,0,0,0,0,0,0,0,0,0
CCN(C)C(=O)c1ccc2c(C(=Nc3ccc(CN4CCCCC4)cc3)c3ccccc3)c(O)[nH]c2c1 (2.5 µM),inactive: 0,inactive: 0,inactive: 0,inactive: 0,inactive: 0,inactive: 0,inactive: 0,inactive: 0,0,0,0,0,0,0,0,0,0,0,0,0
O=C(NOCCO)c1ccc2cncn2c1Nc1ccc(I)cc1F (10 µM),inactive: 0,inactive: 0,inactive: 0,inactive: 0,inactive: 0,inactive: 0,inactive: 0,inactive: 0,0,0,0,0,1,0,0,0,0,0,1,0
CCN1/C(=C/C(C)=O)Sc2ccc(OC)cc21 (10 µM),inactive: 0,inactive: 0,inactive: 0,inactive: 0,inactive: 0,inactive: 0,inactive: 0,inactive: 0,2,0,0,0,0,0,0,0,3,2,4,0
OCCN(CCO)c1ccc(C(c2ccc(Cl)cc2)c2ccc(N(CCO)CCO)cc2)cc1 (10 µM),inactive: 0,inactive: 0,inactive: 0,inactive: 0,inactive: 0,inactive: 0,inactive: 0,inactive: 0,0,0,2,0,0,1,0,0,3,0,1,0
CC1(N)CCN(c2cnc3c(-c4cccc(Cl)c4Cl)[nH]nc3n2)CC1 (2.5 µM),inactive: 0,inactive: 0,inactive: 0,inactive: 0,inactive: 0,inactive: 0,inactive: 0,inactive: 0,0,0,0,0,0,0,0,1,0,0,0,0
Cc1ccc(-c2ncn(-c3ccc(Nc4nccc(-c5cccc(N6CCOCC6)c5)n4)cc3)n2)cn1 (10 µM),inactive: 0,inactive: 0,inactive: 0,inactive: 0,inactive: 0,inactive: 0,inactive: 0,inactive: 0,0,0,0,0,0,0,0,0,0,0,0,0
Cc1cccc(-c2[nH]ncc2-c2ccc3ncccc3n2)n1 (10 µM),inactive: 0,inactive: 0,inactive: 0,inactive: 0,inactive: 0,inactive: 0,inactive: 0,inactive: 0,0,0,0,0,0,0,0,0,0,0,0,0
COc1cc2ncnc(Nc3ccc(NC(=O)c4ccccc4)cc3)c2cc1OC [Aurora kinase inhibitor-2] (2.5 µM),inactive: 0,inactive: 0,inactive: 0,inactive: 0,inactive: 0,inactive: 0,inactive: 0,inactive: 0,0,0,0,0,0,0,0,0,0,0,1,0
CCCCCCCC/C=C\CCCCCCCC(=O)NCC(=O)O [N-Oleoyl glycine] (10 µM),inactive: 0,inactive: 0,inactive: 0,inactive: 0,inactive: 0,inactive: 0,inactive: 0,inactive: 0,0,0,0,0,0,0,0,0,0,0,0,0

# No new results follow: entries from further up.
Compound,kinase-Nluc reporter destabilization hit call [1],kinase-Nluc reporter destabilization hit call [2],kinase-Nluc reporter destabilization hit call [3],kinase-Nluc reporter destabilization hit call [4],kinase-Nluc reporter destabilization hit call [5],kinase-Nluc reporter destabilization hit call [6],kinase-Nluc reporter destabilization hit call [7],kinase-Nluc reporter destabilization hit call [8],number of time points [9],number of time points [10],number of time points [11],number of time points [12],number of time points [13],number of time points [14],number of time points [15],number of time points [16],number of time points [17],number of time points [18],number of time points [19],number of time points [20]
CCN1/C(=C/C(C)=O)Sc2ccc(OC)cc21 (10 µM),inactive: 0,inactive: 0,inactive: 0,inactive: 0,inactive: 0,inactive: 0,inactive: 0,inactive: 0,2,0,0,0,0,0,0,0,3,2,4,0
OCCN(CCO)c1ccc(C(c2ccc(Cl)cc2)c2ccc(N(CCO)CCO)cc2)cc1 (10 µM),inactive: 0,inactive: 0,inactive: 0,inactive: 0,inactive: 0,inactive: 0,inactive: 0,inactive: 0,0,0,2,0,0,1,0,0,3,0,1,0
CC1(N)CCN(c2cnc3c(-c4cccc(Cl)c4Cl)[nH]nc3n2)CC1 (2.5 µM),inactive: 0,inactive: 0,inactive: 0,inactive: 0,inactive: 0,inactive: 0,inactive: 0,inactive: 0,0,0,0,0,0,0,0,1,0,0,0,0
